At least one compound was matched to its structure with a doubt left. Some entries share one result that the patent states for a list of compounds.
Key:
MM043 melanoma cell line [1] = assay: Cell proliferation, crystal violet assay, MM043; conditions: PI3K inhibitor at IC10 in combination with vemurafenib
MM074 melanoma cell line [2] = assay: Cell proliferation, crystal violet assay, MM074; conditions: PI3K inhibitor at IC10 in combination with increasing concentrations of vemurafenib
MM043 melanoma cell line [3] = assay: Apoptosis determination (annexin V), MM043; format: cell-based, human; conditions: PI3K inhibitor at IC10 in combination with vemurafenib, 2 days
[4] = system: key proteins of MAPK and p53/PI3K/AKT pathways; assay: Western blot analysis, MM043 cells; format: cell-based, human; conditions: MM043, Western blotting
Protocol: (§1) Cells were plated in Petri dishes (3×10^6 cells/dish) in culture medium. […] Then, cells were exposed or not to effectors for 30 minutes or 24 hours. Cells were lysed using a detergent cocktail (M-PER Mammalian Extraction Buffer) supplemented with protease inhibitors (Halt Protease Inhibitor Cocktail) and phosphatase inhibitors (Halt Phosphatase Inhibitor Cocktail) (all from Pierce, Rockford, Ill., USA). Protein concentrations were determined by the BCA Protein Assay (Pierce) using bovine serum albumin as the standard. Equal amounts of extracted proteins (35 μg) were subjected to 10 or 12% SDS-PAGE and electrotransferred onto nitrocellulose membranes using iBlot® Dry Blotting System (Invitrogen, Life Technologies, Gent, Belgium). […] Immunostaining signals were digitalized with a PC-driven LAS-3000 CCD camera (Fujifilm, Tokyo, Japan), using a software specifically designed for image acquisition (Image Reader, Raytest®, Straubenhardt, Germany). Immunoreactive band intensities were quantified using the software AIDA® Image Analyser 3.45 (Raytest®).

[5] = system: key proteins of MAPK and p53/PI3K/AKT pathways; assay: Western blot analysis, MM074 cells; format: cell-based, human; conditions: MM074, Western blotting
Protocol: as §1

MM074 melanoma cell line [6] = assay: Apoptosis determination (annexin V), MM074; format: cell-based, human; conditions: PI3K inhibitor at IC10 in combination with vemurafenib, 2 days
melanoma = melanoma patients, of all cases; cited from earlier work

In the case of COc1ccc(-c2cc3c(C)nc(N)nc3n([C@H]3CC[C@H](OCCO)CC3)c2=O)cn1 [PF-04691502], the “IC50 lower than vemurafenib alone” value (MM043 melanoma cell line [1]) is reported as “more than 12 fold”.

With O=c1cc(N2CCOCC2)oc2c(-c3ccccc3)cccc12 [LY294002] the cell proliferation (MM074 melanoma cell line [2]) was “not significantly affected”, the “apoptosis (annexin V-positive cells)” value (MM043 melanoma cell line [3]) was “significant increase in apoptosis” and the “IC50 lower than vemurafenib alone” value (MM043 melanoma cell line [1]) was “more than 12 fold”. For the same compound, the AKT phosphorylation [4] was “inhibited”, the AKT phosphorylation [5] was “inhibited” and the “apoptosis (annexin V-positive cells)” value (MM074 melanoma cell line [6]) was “increased”.

In the case of CN(C)/N=N/c1[nH]cnc1C(N)=O [Dacarbazine], the partial responses (melanoma) is listed as “about 15%”.
